# The other results are listed elsewhere or left out. The data scatter; read single values as rough.
# Chains of the proteins cited; added tags and fusions are not shown. Lines headed by an entry give the natural chain unless they say otherwise; changes in a name come on top. Residues count along the entry.
# UniProt O95487: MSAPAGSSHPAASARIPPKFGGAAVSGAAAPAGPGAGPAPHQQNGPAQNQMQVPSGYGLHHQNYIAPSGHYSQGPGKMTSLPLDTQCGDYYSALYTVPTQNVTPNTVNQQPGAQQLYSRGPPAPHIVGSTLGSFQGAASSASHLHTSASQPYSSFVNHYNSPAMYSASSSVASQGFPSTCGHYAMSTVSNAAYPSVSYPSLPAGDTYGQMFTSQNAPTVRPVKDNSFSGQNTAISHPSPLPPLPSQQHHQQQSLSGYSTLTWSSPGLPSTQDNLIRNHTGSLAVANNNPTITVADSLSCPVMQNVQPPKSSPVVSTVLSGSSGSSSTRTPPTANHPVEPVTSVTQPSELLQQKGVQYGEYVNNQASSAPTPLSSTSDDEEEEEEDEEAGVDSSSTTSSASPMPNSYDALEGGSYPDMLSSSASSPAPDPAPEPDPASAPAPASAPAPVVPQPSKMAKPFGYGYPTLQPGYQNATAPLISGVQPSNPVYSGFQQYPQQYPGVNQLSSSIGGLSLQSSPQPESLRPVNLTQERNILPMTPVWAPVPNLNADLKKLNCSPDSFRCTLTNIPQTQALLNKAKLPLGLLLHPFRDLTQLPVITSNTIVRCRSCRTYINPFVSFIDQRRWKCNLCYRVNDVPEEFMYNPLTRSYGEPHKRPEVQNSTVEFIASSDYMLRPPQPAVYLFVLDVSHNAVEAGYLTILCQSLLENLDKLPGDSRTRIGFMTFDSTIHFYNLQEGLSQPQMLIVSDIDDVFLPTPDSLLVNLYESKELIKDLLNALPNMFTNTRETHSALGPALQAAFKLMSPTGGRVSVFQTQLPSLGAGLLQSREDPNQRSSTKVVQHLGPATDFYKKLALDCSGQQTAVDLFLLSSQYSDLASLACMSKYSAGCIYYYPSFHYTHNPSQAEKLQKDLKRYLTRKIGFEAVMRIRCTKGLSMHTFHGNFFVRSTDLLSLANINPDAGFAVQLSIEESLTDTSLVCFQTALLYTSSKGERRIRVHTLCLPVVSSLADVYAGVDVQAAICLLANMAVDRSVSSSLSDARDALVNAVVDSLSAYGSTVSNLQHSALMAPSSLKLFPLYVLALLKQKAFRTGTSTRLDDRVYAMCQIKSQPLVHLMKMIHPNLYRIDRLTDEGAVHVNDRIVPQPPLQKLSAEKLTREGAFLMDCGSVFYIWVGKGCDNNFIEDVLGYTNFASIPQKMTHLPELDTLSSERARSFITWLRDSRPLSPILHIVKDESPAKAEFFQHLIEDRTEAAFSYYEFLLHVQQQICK
# UniProt O95248: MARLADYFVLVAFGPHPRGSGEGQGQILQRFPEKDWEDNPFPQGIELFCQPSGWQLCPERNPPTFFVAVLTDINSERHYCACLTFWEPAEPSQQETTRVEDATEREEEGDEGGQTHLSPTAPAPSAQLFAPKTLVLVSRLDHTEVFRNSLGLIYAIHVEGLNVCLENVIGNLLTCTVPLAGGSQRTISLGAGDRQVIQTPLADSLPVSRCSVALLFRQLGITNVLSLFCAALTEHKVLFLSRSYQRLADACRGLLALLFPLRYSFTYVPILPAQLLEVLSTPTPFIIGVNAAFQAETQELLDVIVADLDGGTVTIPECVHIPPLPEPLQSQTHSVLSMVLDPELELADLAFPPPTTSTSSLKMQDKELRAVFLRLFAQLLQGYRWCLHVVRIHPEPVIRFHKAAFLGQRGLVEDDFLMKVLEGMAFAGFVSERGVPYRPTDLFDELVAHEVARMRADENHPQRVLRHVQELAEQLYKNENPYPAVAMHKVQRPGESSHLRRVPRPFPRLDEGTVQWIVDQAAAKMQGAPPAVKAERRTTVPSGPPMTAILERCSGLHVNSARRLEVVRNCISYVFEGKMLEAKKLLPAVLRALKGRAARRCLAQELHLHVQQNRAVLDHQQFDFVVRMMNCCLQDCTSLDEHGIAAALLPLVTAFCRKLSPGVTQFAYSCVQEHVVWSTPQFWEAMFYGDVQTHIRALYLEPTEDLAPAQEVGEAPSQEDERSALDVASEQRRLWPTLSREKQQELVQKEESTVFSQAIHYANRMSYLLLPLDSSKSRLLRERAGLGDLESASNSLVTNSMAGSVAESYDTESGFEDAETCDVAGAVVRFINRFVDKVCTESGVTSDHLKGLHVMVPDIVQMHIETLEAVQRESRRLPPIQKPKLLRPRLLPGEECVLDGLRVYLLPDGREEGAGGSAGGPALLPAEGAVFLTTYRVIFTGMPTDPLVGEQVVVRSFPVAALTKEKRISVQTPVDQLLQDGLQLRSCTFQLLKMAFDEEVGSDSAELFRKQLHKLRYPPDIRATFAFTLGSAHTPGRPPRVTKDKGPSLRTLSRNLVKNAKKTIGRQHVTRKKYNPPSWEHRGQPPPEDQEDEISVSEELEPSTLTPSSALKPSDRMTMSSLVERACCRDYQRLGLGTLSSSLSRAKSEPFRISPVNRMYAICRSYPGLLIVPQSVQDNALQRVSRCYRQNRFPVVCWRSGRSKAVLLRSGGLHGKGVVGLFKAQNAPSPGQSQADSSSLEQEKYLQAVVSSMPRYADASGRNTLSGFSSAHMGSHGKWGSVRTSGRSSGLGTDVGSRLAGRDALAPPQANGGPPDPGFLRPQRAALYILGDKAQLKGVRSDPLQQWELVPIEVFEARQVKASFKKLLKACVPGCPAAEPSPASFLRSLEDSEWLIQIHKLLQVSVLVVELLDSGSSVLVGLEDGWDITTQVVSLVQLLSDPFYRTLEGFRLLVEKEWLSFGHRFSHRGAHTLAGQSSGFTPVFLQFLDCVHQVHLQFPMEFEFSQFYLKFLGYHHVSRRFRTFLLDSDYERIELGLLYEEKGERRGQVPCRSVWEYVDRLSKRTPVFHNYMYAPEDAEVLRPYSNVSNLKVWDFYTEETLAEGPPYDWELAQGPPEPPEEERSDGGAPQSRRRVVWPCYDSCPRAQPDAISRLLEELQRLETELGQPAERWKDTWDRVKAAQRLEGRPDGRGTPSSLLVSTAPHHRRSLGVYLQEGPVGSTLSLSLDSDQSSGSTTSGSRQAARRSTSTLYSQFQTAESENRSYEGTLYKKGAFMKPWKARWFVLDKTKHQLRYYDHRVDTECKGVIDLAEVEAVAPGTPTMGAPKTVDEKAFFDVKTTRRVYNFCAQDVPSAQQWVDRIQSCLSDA
# UniProt Q9UHJ6: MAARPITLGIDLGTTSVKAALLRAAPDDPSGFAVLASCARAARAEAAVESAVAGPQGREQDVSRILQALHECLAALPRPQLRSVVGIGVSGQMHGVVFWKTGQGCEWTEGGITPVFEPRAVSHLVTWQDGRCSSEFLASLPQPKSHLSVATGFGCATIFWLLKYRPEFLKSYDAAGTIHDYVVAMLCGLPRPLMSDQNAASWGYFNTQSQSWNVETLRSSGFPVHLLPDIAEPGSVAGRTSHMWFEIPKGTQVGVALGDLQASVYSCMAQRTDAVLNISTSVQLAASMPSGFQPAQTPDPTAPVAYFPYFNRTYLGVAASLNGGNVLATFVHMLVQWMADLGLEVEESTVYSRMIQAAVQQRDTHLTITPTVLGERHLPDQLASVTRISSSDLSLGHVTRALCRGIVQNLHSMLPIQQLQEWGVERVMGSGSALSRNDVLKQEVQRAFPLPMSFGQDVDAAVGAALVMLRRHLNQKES
# UniProt Q9P0V3: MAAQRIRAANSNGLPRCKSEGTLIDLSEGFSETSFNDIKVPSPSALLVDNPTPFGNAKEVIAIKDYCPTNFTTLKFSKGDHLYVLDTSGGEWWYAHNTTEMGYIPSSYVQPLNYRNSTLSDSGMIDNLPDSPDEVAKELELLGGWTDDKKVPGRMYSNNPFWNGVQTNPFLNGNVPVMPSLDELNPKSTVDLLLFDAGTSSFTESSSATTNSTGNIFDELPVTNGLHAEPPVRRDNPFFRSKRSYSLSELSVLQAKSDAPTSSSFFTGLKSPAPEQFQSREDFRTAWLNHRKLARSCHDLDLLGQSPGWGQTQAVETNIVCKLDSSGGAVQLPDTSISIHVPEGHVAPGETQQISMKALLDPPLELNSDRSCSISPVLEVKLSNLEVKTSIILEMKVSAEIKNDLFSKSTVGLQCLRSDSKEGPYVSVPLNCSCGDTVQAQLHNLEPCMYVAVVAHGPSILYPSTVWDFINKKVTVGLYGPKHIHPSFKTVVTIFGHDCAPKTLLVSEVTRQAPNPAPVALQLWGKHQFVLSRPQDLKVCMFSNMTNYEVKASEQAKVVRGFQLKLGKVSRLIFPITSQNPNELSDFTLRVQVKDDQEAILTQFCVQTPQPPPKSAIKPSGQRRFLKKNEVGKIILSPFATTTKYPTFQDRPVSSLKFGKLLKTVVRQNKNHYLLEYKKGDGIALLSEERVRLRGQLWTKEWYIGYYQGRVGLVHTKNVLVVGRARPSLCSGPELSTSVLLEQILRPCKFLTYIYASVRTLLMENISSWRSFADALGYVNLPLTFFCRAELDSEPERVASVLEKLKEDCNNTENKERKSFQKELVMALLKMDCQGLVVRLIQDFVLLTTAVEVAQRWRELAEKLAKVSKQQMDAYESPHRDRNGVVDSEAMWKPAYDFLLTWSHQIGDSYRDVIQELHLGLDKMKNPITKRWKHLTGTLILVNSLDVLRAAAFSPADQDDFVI
# UniProt Q12874: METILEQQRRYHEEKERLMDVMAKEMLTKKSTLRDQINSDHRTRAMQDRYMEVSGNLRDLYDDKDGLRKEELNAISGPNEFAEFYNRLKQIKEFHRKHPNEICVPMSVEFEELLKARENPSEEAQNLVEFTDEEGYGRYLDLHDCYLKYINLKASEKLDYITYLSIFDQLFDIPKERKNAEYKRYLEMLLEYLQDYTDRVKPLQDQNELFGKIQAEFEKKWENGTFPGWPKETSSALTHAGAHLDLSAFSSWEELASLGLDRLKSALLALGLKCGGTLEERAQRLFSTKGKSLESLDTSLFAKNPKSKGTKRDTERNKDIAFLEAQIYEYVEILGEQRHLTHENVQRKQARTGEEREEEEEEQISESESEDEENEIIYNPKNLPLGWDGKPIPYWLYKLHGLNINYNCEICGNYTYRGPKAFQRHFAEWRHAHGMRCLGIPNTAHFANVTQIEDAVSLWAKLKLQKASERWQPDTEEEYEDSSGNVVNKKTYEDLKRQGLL
# UniProt Q6P3W7: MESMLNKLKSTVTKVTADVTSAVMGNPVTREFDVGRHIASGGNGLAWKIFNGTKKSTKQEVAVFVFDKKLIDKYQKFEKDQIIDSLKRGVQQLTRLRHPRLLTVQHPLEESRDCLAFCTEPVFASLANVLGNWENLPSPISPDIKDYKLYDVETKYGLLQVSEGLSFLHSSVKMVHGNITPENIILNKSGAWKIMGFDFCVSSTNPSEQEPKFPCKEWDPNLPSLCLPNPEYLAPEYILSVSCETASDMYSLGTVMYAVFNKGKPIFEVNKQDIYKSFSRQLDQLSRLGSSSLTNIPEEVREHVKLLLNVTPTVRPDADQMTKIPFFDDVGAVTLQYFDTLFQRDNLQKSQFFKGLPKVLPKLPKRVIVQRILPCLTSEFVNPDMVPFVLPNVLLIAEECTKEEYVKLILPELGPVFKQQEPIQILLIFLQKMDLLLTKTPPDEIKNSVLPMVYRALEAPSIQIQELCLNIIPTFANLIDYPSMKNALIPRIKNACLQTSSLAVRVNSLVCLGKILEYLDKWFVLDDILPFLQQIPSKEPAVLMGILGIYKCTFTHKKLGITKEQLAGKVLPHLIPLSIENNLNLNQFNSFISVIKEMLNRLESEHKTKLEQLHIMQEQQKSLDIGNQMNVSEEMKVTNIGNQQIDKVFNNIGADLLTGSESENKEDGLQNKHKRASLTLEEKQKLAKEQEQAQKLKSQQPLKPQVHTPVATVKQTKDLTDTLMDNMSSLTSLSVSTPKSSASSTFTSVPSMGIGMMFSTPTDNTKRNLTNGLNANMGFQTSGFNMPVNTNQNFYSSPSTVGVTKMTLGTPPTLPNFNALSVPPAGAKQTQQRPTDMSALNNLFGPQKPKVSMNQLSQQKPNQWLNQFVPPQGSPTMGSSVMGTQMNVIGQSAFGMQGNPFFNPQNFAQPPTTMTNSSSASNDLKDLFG
# UniProt Q99590, 560-583: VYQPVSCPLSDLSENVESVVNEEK
# UniProt Q9NRX5: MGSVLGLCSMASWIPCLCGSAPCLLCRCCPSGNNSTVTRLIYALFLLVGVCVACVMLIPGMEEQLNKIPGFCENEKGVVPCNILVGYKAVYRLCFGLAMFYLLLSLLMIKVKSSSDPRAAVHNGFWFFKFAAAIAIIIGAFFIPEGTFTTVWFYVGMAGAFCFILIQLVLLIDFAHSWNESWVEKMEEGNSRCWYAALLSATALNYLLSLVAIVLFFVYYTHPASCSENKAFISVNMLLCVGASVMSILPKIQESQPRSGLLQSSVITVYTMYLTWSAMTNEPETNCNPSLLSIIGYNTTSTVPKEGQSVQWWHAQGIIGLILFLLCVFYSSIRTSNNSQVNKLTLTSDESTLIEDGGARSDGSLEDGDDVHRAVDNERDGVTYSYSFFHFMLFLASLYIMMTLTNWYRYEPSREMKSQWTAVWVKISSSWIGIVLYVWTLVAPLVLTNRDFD
# Tests used:
# [1] = compound: ClCC(=O)N[C@@H]1CCCc2ccccc12; assay: log2 mean competition ratio of IA-DTB cysteine labelling (DMSO/compound) (log2 ratio); higher = stronger cysteine engagement by compound; details: treatment time: 4 h, cell line lysate: HEK293T
# Protocol: (§1)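 IA-DTB competitive cysteine chemoproteomics in HEK293T RIPA lysate. Lysates were treated with compound 29 or 30 at 50 or 200 µM for 4 h, then IA-DTB (500 µM, 1 h), trypsin-digested, NeutrAvidin-enriched and analysed by diaPASEF. Competition ratio = intensity DMSO / intensity compound (n=4 treated, n=64 DMSO); binding: mean log2 CR ≥ 1 and p ≤ 0.05 plus QC filters. Target is the cysteine site.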
# [2] = compound: ClCC(=O)N[C@H]1CCCc2ccccc12; assay: as above; details: treatment time: 4 h, cell line lysate: HEK293T
# Protocol: as §1
Target,log2 mean competition ratio ([1]; 50 µM),log2 mean competition ratio ([1]; 200 µM),log2 mean competition ratio ([2]; 50 µM),log2 mean competition ratio ([2]; 200 µM)
SHMT2 C241,-0.0765,0.151,-0.154,-0.00433
SERPINB6 C100,0.651,0.143,0.00885,0.337
SH3PXD2B C783 (UniProt A1X283),0.21,0.333,0.231,0.0504
SHTN1 C565 (UniProt A0MZ66),0.0909,0.112,0.445,0.335
SIAH2 C15 (UniProt O43255),0.343,0.288,0.00852,0.0338
SEC24B C1103 (UniProt O95487),0.22,0.0454,0.509,0.143
SBF1 C839 (UniProt O95248),-0.0809,-0.227,0.441,-0.272
SEC23IP C604 (UniProt Q9Y6Y8),0.409,0.0976,-0.146,0.0515
SHPK C105 (UniProt Q9UHJ6),-0.277,0.029,0.111,0.168
SH3BP4 C415 (UniProt Q9P0V3),0.066,0.16,0.364,0.105
SESTD1 C482 (UniProt Q86VW0),-0.258,-0.0996,0.255,0.272
SCYL1 C512 (UniProt Q96KG9),-0.0447,-0.192,-0.202,-0.0797
SF3A3 C274 (UniProt Q12874),0.262,-0.0777,0.199,-0.18
SDHA C238 (UniProt P31040),-0.264,0.185,-0.305,-0.178
SH3GL3 C96 (UniProt Q99963),0.145,0.193,-0.147,0.231
SHROOM3 C1467,-0.599,0.537,-0.21,0.245
SAMM50 C237 (UniProt Q9Y512),-0.0685,-0.112,0.249,-0.226
SIKE1 C164 (UniProt Q9BRV8),0.106,-0.0563,0.401,0.227
SHB C224 (UniProt Q15464),0.181,-0.0501,0.0966,-0.0403
SF3B1 C1035 (UniProt O75533),-0.00984,-0.167,-0.0875,-0.0112
SERINC3 C89 (UniProt Q13530),-0.129,0.467,-0.43,-0.114
SCARF2 C350,0.105,0.0275,0.165,0.213

# Exported with tabs: entries from further up
Target	log2 mean competition ratio ([1]; 50 µM)	log2 mean competition ratio ([1]; 200 µM)	log2 mean competition ratio ([2]; 50 µM)	log2 mean competition ratio ([2]; 200 µM)
SBF1 C839 (UniProt O95248)	-0.0809	-0.227	0.441	-0.272
SEC23IP C604 (UniProt Q9Y6Y8)	0.409	0.0976	-0.146	0.0515
SHPK C105 (UniProt Q9UHJ6)	-0.277	0.029	0.111	0.168

# Continued.

Target,log2 mean competition ratio ([1]; 50 µM),log2 mean competition ratio ([1]; 200 µM),log2 mean competition ratio ([2]; 50 µM),log2 mean competition ratio ([2]; 200 µM)
SFXN4 C70 (UniProt Q6P4A7),-0.554,0.101,0.189,0.167
SIN3A C551 (UniProt Q96ST3),-0.134,0.407,0.0185,0.169
SERPINB9 C259 (UniProt P50453),-0.0617,0.096,-0.331,-0.0225
SCRN2 C277 (UniProt Q96FV2),0.182,-0.125,-0.405,-0.116
SCYL2 C511 (UniProt Q6P3W7),0.0525,-0.0288,0.195,-0.0333
SCAF11 C1020 (UniProt Q99590),0.117,-0.505,-0.172,-0.208
SAT2 C14 (UniProt Q96F10),-0.264,0.346,-0.113,0.298
SIN3A C1167 (UniProt Q96ST3),-0.00363,0.423,-0.164,0.45
SH3PXD2A C832 (UniProt Q5TCZ1),-0.337,-0.488,0.202,-0.211
SHPK C38 (UniProt Q9UHJ6),0.264,0.148,0.234,0.17
SHB C392 (UniProt Q15464),0.163,0.284,-0.138,0.0255
SBF1 C896 (UniProt O95248),-0.135,-0.0702,-0.416,-0.0468
SF1 C171,-0.252,0.293,-0.319,0.306
SCAF11 C566 (UniProt Q99590),0.114,0.0289,0.178,-0.187
SERINC1 C72 (UniProt Q9NRX5),0.0343,-0.15,-0.121,-0.188
SGPP1 C76 (UniProt Q9BX95),0.152,-0.418,0.0489,-0.608
SEC62 C82 (UniProt Q99442),-0.28,-0.108,0.0287,0.075
SAFB C448 (UniProt Q15424),0.424,-0.031,0.61,0.0315
SCD5 C14 (UniProt Q86SK9),-0.0481,0.137,-0.473,0.0285
SH3GL1 C96 (UniProt Q99961),0.308,0.304,0.356,0.391
SH3RF3 C497,-0.131,0.0544,-0.358,0.566
SEPTIN6 C14 (UniProt Q14141),-0.0809,0.384,-0.0763,0.271
